In US20240299303A1, “NANOSTRUCTURE OR MICROSTRUCTURE AND METHOD FOR PRODUCING SAME” (The University of Tokyo, priority 2021, published 2024):
At least one compound was matched to its structure with a doubt left.

Experiment: Introduction of compounds into nanosheets, absorbance of supernatant after centrifugation
Assay type: physicochemical
Description: (§1) 700 Microliters of an aqueous solution (300 μg/mL) of 5-fluorouracil was added to 500 mg of the nanosheet dispersion-1 obtained in Example 1, and the mixture was shaken at room temperature for 48 hours. The nanosheet dispersion having introduced thereinto 5-fluorouracil was centrifuged (at 12,000 rpm for 10 minutes), and the supernatant liquid was collected.
The introduction amount of 5-fluorouracil was determined by the same process as that of Example 4 except that a concentration-absorbance calibration curve was produced at a predetermined wavelength (λ=270 nm).
as §1, with “(100” for “(300”, “hydrocortisone” for “5-fluorouracil”
The introduction amount of hydrocortisone was determined by the same process as that of Example 4 except that a concentration-absorbance calibration curve was produced at a predetermined wavelength (λ250 nm).
as §1, with “500” for “700”, “(30” for “(300”, “betamethasone” for “5-fluorouracil”, “100” for “500”
The introduction amount of betamethasone was determined by the same process as that of Example 4 except that a concentration-absorbance calibration curve was produced at a predetermined wavelength (λ=250 nm).
as §1, with “500” for “700”, “(30” for “(300”, “menadione” for “5-fluorouracil”, “100” for “500”
The introduction amount of menadione was determined by the same process as that of Example 4 except that a concentration-absorbance calibration curve was produced at a predetermined wavelength (λ=250 nm).

C[C@H]1C[C@H]2[C@@H]3CCC4=CC(=O)C=C[C@]4(C)[C@@]3(F)[C@@H](O)C[C@]2(C)[C@@]1(O)C(=O)CO [Betamethasone, betamethasone]
introduction amount relative to the weight of the nanosheets (Examples 4-8, crosslinked β-cyclodextrin nanosheets): 0.05 wt %
Weight of introduced compound/weight of nanosheets (Table 1, crosslinked β-cyclodextrin nanosheets): 0.05%
Concentration of introduced compound before introduction (in nanosheet dispersion, defined in consideration of dilution with moisture in the dispersion, nanosheets 43 mg/mL (Examples 4-6) or 17 mg/mL (Examples 7-8)): 25 µg/mL
amount of compound introduced into the nanosheets (reduction in concentration before and after introduction) (nanosheets 17 mg/ml (Example 7)): 8 g/mL
Concentration of introduced compound after introduction (supernatant after shaking at room temperature 48 hours and centrifugation, absorbance, nanosheets 43 mg/mL (Examples 4-6) or 17 mg/mL (Examples 7-8)): 17 µg/mL
